Taken from: PubChem BioAssay AID602196 (INSERM, 2012)
Here is an unselected part of about 23,000 deposited reagents. 455 of them (2%) were called active. 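Active includes both protection and sensitisation; some change values fall well beyond the stated -50 to +50 range.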 Unmarked entries are inactive. Not given: the amount of reagent.

Screen: 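Genes whose knock-down alters cisplatin killing of lung cancer cells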
System: human A549 lung cancer cells
Knock-down reagent: siRNA pair against human genes
Duration: 48 h transfection before cisplatin; time from cisplatin to read-out not stated
Treatment: cisplatin at a dose killing half of control-siRNA cells; exact dose and duration not given
Measurement: 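Cisplatin cell death as a shift from the 50% death seen with control siRNA; siRNAs toxic or growth-blocking alone scored 0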
Scale: two-siRNA summed score (-2 to +2): higher = both siRNAs protect from cisplatin killing; -2 means both sensitise; mean protection from cisplatin (shift in death) and protection from cisplatin (shift in death), siRNA C and protection from cisplatin (shift in death), siRNA D: higher = protection from cisplatin killing
Active means: 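siRNAs harmful alone (LDH or WST-1) get 0; others get +1 for less and -1 for more cisplatin killing; genes are active when the two siRNAs give the same sign, summing to ±2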
Calls: active = both siRNAs shift cisplatin killing the same way; inactive = no consistent shift, or siRNA harmful alone

| gene | two-siRNA summed score (-2 to +2) | mean protection from cisplatin (shift in death) (%) | protection from cisplatin (shift in death), siRNA C (%) | protection from cisplatin (shift in death), siRNA D (%) |
| --- | --- | --- | --- | --- |
| LRRC4 | 0 | 17.3 | 4.8 | 29.9 |
| MISP3 | 0 | 3.1 | 12.6 | -6.4 |
| TAC4 | 0 | 10.6 | 12 | 9.3 |
| NAA10 | 0 | 7 | 3.6 | 10.5 |
| RBM8A | 0 | -1.3 | 9.2 | -11.9 |
| LOC155100 | 0 | 3.5 | -3.7 | 10.7 |
| RPS7 | 0 | 26.8 | 22 | 31.6 |
| LOC440698 | 1 | 8.1 | 9.9 | 6.4 |
| LOC441109 | 0 | 10.3 | 6.3 | 14.3 |
| SYT1 | -1 | -3.7 | 8.1 | -15.5 |
| PCED1B | 0 | 6.5 | 3 | 10 |
| CCL17 | -1 | -14.6 | -7.1 | -22 |
| RRBP1 | -1 | -8.2 | 0.7 | -17.2 |
| HCRT | 0 | -12.8 | -13.8 | -11.8 |
| IKBIP | 1 | 25.6 | 36 | 15.3 |
| TBK1 | 1 | 7.3 | 15.6 | -1.1 |
| CDK17 | 1 | 7.5 | 18.9 | -3.8 |
| LOC283259 | 0 | 23.2 | 30.9 | 15.5 |
| REM1 | 0 | -2 | -2.2 | -1.9 |
| OR6C68 | 1 | 12.4 | 9.1 | 15.6 |
| C12orf60 | 1 | 19.1 | 14.4 | 23.9 |
| LSM11 | 0 | 10.5 | 11.6 | 9.5 |
| FBXL18 | -1 | 0.4 | 11.4 | -10.7 |
| LOC401112 | 0 | 6.4 | 6.1 | 6.7 |

A few values from the list.
Entry of LOC155100 under “mean protection from cisplatin (shift in death) (%)”: 3.5
Entry of HCRT under “protection from cisplatin (shift in death), siRNA D (%)”: -11.8
RBM8A, two-siRNA summed score (-2 to +2): 0

The list goes on:
| gene | two-siRNA summed score (-2 to +2) | mean protection from cisplatin (shift in death) (%) | protection from cisplatin (shift in death), siRNA C (%) | protection from cisplatin (shift in death), siRNA D (%) |
| --- | --- | --- | --- | --- |
| GATA6 | 0 | -1.5 | -0.2 | -2.8 |
| TAP1 | 0 | -6.2 | 15.1 | -27.6 |
| LOC441748 | 0 | 9.7 | 14.5 | 4.9 |
| LRRC55 | 0 | -5.2 | 0.6 | -11 |
| TERT | 0 | -4.2 | -14.4 | 6.1 |
| ERVFRD-1 | 0 | 1.3 | 5.3 | -2.8 |
| OR6B2 | 0 | -6.2 | -5.7 | -6.7 |
| FARSA | 0 | -5.1 | -16.2 | 6 |
| SPINT2 | 1 | 12.2 | -1.8 | 26.1 |
| IGSF8 | 0 | -2.5 | 6.6 | -11.6 |
| MARCKS | 0 | 13.1 | 10.7 | 15.6 |
| LRRK1 | 0 | 4.2 | 14.9 | -6.5 |
| ACIN1 | 0 | 11.8 | 15.1 | 8.4 |
| LOC390254 | 1 | 16 | 28.2 | 3.8 |
| TRPV2 | 0 | -0.7 | 11.8 | -13.2 |
| AP1M1 | 0 | 1.4 | 6.5 | -3.7 |
| TREML4 | 1 | 18.4 | 21.1 | 15.6 |
| SELENOV | 0 | 25.5 | 31.8 | 19.2 |
| BRCA1 | 0 | -14.3 | -25 | -3.6 |
| MID2 | 0 | 7.9 | 12.3 | 3.4 |
| CDK14 | -1 | -20.5 | -6 | -35.1 |
| FBXO21 | 0 | -1.6 | -11.6 | 8.5 |
| LOC441374 | 1 | 9.8 | 13 | 6.5 |
| NEXN | 1 | 12.4 | 1.1 | 23.6 |
| FEZ1 | 1 | 5.2 | 15.8 | -5.3 |
| TXNRD2 | -2 (active) | -19 | -22.1 | -15.9 |
| OR52E4 | 0 | 7.7 | 9.4 | 6 |
| MEIOSIN | 0 | 18.5 | 42 | -5 |
| APCS | 0 | 4.3 | 7 | 1.5 |
| ARHGEF10L | 0 | 9.7 | 10.9 | 8.4 |
| MSANTD3 | 0 | 10.8 | -7.5 | 29.1 |
| LOC388503 | 0 | 16.9 | 3.2 | 30.6 |
| F13A1 | 0 | -8.8 | -28.1 | 10.5 |
